According to PubChem BioAssay AID977605 (Broad Institute, 2014):
The shares of active, inactive and inconclusive entries below differ from those in the screen. Active and inactive are the calls of the source.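 Rule for the calls: active = fitted curve reaches 40% activation below the top valid tested dose, in every test run; inconclusive = test runs disagree on the call; inactive = the rest, including effects opposite to the expected direction.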

Experiment: endothelial E-selectin upregulation by compounds – imaging, HUVEC, cherry-picked samples, dose response (AID 977605);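 note: signal is the share of imaged cells scored positive for E-selectin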
Settings: HUVEC E-selectin immunostaining, percent of TNF-alpha response over vehicle; at 19.5 µM (top of the series) unless noted

Row | Structure (SMILES) | activation
1 | CCOC(=O)C1(Cc2cccc(OC)c2)CCCN(Cc2cc(C(C)C)n[nH]2)C1 (stereo unspecified) | inconclusive: 0.447%
2 | C/C(=N\NC(=O)c1cc(C(C)C)[nH]n1)c1ccco1 | inactive: 0.133%
3 | C[C@@H]1CN([C@H](C)CO)C(=O)c2cc(N(C)C)ccc2O[C@@H]1CN(C)C(=O)Nc1ccc2c(c1)OCO2 | inactive: 0.018%
4 | C[C@@H]1CN([C@@H](C)CO)C(=O)Cc2cc(NC(=O)c3ccncc3)ccc2O[C@@H]1CN(C)C(=O)Nc1ccc(C(F)(F)F)cc1 | inactive: -0.044%
5 | C[C@H](NC(=O)C[C@H]1CC[C@H]2[C@H](COc3ccc(NS(=O)(=O)c4ccc(Cl)cc4)cc3C(=O)N2C)O1)c1ccccc1 | inactive: 0.192% [at 21 µM]
6 | CCc1cccc2c1NC1(CCCC1)CC2C (stereo unspecified) | inconclusive: 0.492%
7 | CCOC(=O)C1(Cc2cccc(OC)c2)CCN(Cc2ccccc2)CC1 | inactive: 0.067%
8 | OCc1ccc(-c2nn(Cc3ccccc3)c3ccccc23)o1 | inconclusive: 48.1%
9 | O=C(C1CCCC1)N1CC[C@@H]2[C@H](CO)Nc3ccc(C#Cc4ccc(F)cc4)cc3[C@@H]21 | inconclusive: 18.9%
10 | Cc1noc(C)c1NC(=O)N(C)C[C@H]1Oc2ccc(NC(=O)c3ccncc3)cc2C(=O)N([C@H](C)CO)C[C@@H]1C | inactive: -0.129%
11 | CCCCNC(=O)N1CCN(c2ccccc2OCC)CC1 | inactive: 0.12%
12 | C[C@@H]1CN([C@H](C)CO)C(=O)c2cc(NS(C)(=O)=O)ccc2O[C@H]1CN(C)C(=O)Nc1ccc2c(c1)OCO2 | inactive: 0.437% [at 21 µM]
13 | O=C(C1CCC1)N1CC[C@@H]2[C@H](CO)Nc3ccc(C#Cc4cccc(F)c4)cc3[C@@H]21 | inconclusive: 24.6% [at 21 µM]
14 | Cc1ccc(OCc2nc(-c3cccnc3)no2)cc1C | inactive: -0.108%
15 | CNc1ccccc1C(C)(C)c1cc(-c2cccc(Br)c2)no1 | inconclusive: 18%
16 | Cc1ccc(NCc2n[nH]c(=S)n2-c2ccccc2)cc1 | inactive: 1.12%
17 | Cc1noc(C)c1NC(=O)N(C)C[C@H]1Oc2ccc(NS(=O)(=O)c3cccs3)cc2C(=O)N([C@H](C)CO)C[C@H]1C | inactive: -0.05%
18 | CCc1ccc(-n2c(=S)sc3c(=O)n(-c4ccccc4C)c(SCC(=O)O)nc32)cc1 | inconclusive: 56.8%

Reformatted comma-delimited: entries from further up
Row,Structure (SMILES),activation
5,C[C@H](NC(=O)C[C@H]1CC[C@H]2[C@H](COc3ccc(NS(=O)(=O)c4ccc(Cl)cc4)cc3C(=O)N2C)O1)c1ccccc1,inactive: 0.192% [at 21 µM]
6,CCc1cccc2c1NC1(CCCC1)CC2C (stereo unspecified),inconclusive: 0.492%

(next part)

Row | Structure (SMILES) | activation
19 | Cc1noc(C)c1NC(=O)N(C)C[C@@H]1Oc2ccc(NC(=O)c3ccncc3)cc2C(=O)N([C@H](C)CO)C[C@@H]1C | inactive: 0.043% [at 21 µM]
20 | C[C@H]1CN([C@@H](C)CO)C(=O)Cc2cc(NC(=O)Cc3cn(C)c4ccccc34)ccc2O[C@@H]1CN(C)C(=O)Nc1ccc(C(F)(F)F)cc1 | inconclusive: 16.7%
21 | COc1ccc(S(=O)(=O)N(C)C[C@H]2Oc3ccc(NC(=O)CCCN(C)C)cc3C(=O)N([C@@H](C)CO)C[C@H]2C)cc1 | inactive: 0.162%
22 | C[C@H](CO)N1C[C@H](C)[C@@H](CN(C)C(=O)Nc2ccc(C(F)(F)F)cc2)Oc2ccc(NC(=O)Cc3cn(C)c4ccccc34)cc2CC1=O | inconclusive: 6.78%
23 | O=C(O)C1CCN(c2nc(-c3ccccc3)c3cc(Br)ccc3n2)CC1 | inconclusive: 68.1%
24 | O=C(C1CCC1)N1CC[C@@H]2[C@@H](CO)Nc3ccc(C#Cc4ccc(F)cc4)cc3[C@@H]21 | inconclusive: 3.02% [at 21 µM]
25 | C[C@@H]1CN([C@H](C)CO)C(=O)Cc2cc(NC(=O)CCC(F)(F)F)ccc2O[C@@H]1CN(C)S(C)(=O)=O | inconclusive: 76.1%
26 | CNc1ccccc1C(C)(C)c1cc(-c2cccc(OC)c2)no1 | inconclusive: 7.76%
27 | Cc1cc(C(=O)Nc2ccc(C)c(C)c2)n(-c2ccccc2)n1 | inactive: 0.076%
28 | O=C(C1CC1)N1CC[C@@H]2[C@H](CO)Nc3ccc(C#Cc4ccc(F)cc4)cc3[C@@H]21 | inconclusive: 21.3%
29 | O=C(N/N=C/c1cccs1)c1n[nH]c2c1CCCC2 | inconclusive: 116%
30 | Cc1cc(C)nc(NC(N)=NC(C)c2ccccc2)n1 (stereo unspecified) | inactive: -0.07%
31 | CCC(=O)c1ccc(OCC(=O)NNC(=O)c2cc(C)oc2C)cc1 | inactive: -0.03%
32 | O=C(c1cc2c(c(-c3cccc(Br)c3)n1)[C@@H](CCO)NC2)N1CCCCC1 | inconclusive: 2.96%
33 | Cc1cccc2c1NC1(CCCC1)CC2C (stereo unspecified) | inconclusive: 11.2%
34 | O=C(C1CCC1)N1CC[C@@H]2[C@H](CO)Nc3ccc(C#Cc4ccc(F)cc4)cc3[C@@H]21 | inconclusive: 14.9%
35 | O=C(c1c(F)cccc1F)N(Cc1ccccc1)Cc1ccccc1 | inconclusive: -0.215%
36 | CC(C)NC(=O)N(C)C[C@H]1Oc2ccc(NC(=O)CCN3CCOCC3)cc2C(=O)N([C@H](C)CO)C[C@H]1C | inconclusive: 58.6%
